From PubChem BioAssay AID2685 (National Center for Advancing Translational Sciences (NCATS), 2010) come the findings set out here.

By AC50 is commonly meant the concentration giving half of the maximal activity seen.

A short description of the assay: qHTS Assay for Lipid Storage Modulators in Drosophila S3 Cells.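 On cell number change: cells counted by Cell Tracker Red CMTPX staining in the red channel.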 Particulars: BODIPY lipid droplet fluorescence, 18-24 h; for cell number change: measured here: cell count max response, cells fed with added oleic acid. Put shortly:
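Laser-scanning cytometry quantifies lipid droplet accumulation (500–530 nm total intensity; droplet/cell object ratio) in oleic acid-fed (400 uM added) Drosophila S3 cells treated with a concentration series. 20 uM Triacsin C defined 100% inhibition.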
Background: qHTS replaces the single test concentration by a dilution series.

Where [1] appears, read: measured here: cell number channel AC50, cells fed with added oleic acid.
Setting [2] is: measured here: lipid fluorescence (Fed channel) AC50, cells fed with added oleic acid.

Values joined by “and” are separate entries in the source; they are usually repeats but may differ in a detail not shown here. Equal entries are not always repeated. The list shows a part of the results. Further columns of the screen follow, without active or inactive calls. Most of these compounds were active or inconclusive in the main read-out, so they are no random draw. Words in brackets tell the shape of the fitted curve; partial curves, single points and poor fits give uncertain potencies.

As to `Cc1onc(-c2ccccc2Cl)c1C(=O)N1CCc2ccccc2C1`, the cell number change came out at 68.1%. The AC50 under setting [1] is 16.4 µM [rising, single point].
On to `Cc1c(C(=O)N2CCCCC2)sc(NC(=O)C(C)C)c1C#N`, for which the cell number change was -30.7%. Besides, under setting [1], the AC50 is 0.00517 µM [falling, full curve, poor fit].
Take `CCC(=O)Nc1cccc2cccnc12`: the cell number change is 0.551%. The AC50 under setting [1] was 7.31 µM [falling, partial curve, poor fit].
For the molecule `CC1CN(C(=O)CSc2nc(-c3ccc(F)cc3)cs2)CC(C)O1` (stereo not drawn), the cell number change is -60%.
Take `C/C(=N\NC(=O)c1cc(C)oc1C)c1ccc2c(c1)OCO2`: the cell number change was -31.9%. Further, the AC50 under setting [1] is 4.61 µM [falling, full curve, poor fit]. In addition, the AC50 under setting [2] was 0.231 µM [falling, full curve, poor fit].
Take `COc1ccc(S(=O)(=O)N(CC(=O)N2CCCCCC2)c2ccccc2OC)cc1`: the cell number change is -9.21%. For the same molecule, the AC50 under setting [2] was 3.55 µM [rising, single point].
Consider `Fc1cc(F)nc(NCc2ccccc2)n1`, for which the cell number change was determined as 6.31%.
`CCOC(=O)c1c(Cc2ccc(Cl)cc2)c[nH]c1C`: the cell number change is -30.6%. Under setting [1], the AC50 was 29.1 µM [falling, single point]. In addition, the AC50 under setting [2] is 9.2 µM [falling, single point].
Turning to `COc1ccc(N(CC(=O)Nc2ccc3c(c2)OCO3)S(=O)(=O)c2ccccc2)c(OC)c1`, the cell number change was -12.5%. In addition, under setting [2], the AC50 is 0.82 µM [rising, full curve, poor fit].
Regarding `COc1ccc2nc(C)cc(SCC(=O)OC(C)C)c2c1`, the cell number change was -23.4%. The AC50 under setting [2] was 14.6 µM [falling, single point].
On to `CC(C)(C)C(=O)Cn1c(=N)n(Cc2ccccc2)c2ccccc21`, for which the cell number change was -38.8%. Besides, the AC50 under setting [1] is 20.6 µM [falling, single point]. Moreover, the AC50 under setting [2] is 20.6 µM [falling, single point].
With `Cc1nn(CC(=O)Nc2cc(S(=O)(=O)N3CCOCC3)ccc2Cl)c(C)c1[N+](=O)[O-]`, the cell number change is -42.1%. In addition, the AC50 under setting [1] was 32.6 µM [falling, partial curve, poor fit]. The AC50 under setting [2] is 0.82 µM [falling, full curve].
For `Cc1cc(C(=O)Nc2nc3c(C)cccc3s2)c(C)o1`, under setting [2], the AC50 was 5.8 µM [rising, single point].
For the molecule `N#Cc1ccccc1NC(=O)C1SC(=Nc2ccccc2)C(C(=O)Nc2ccc(Cl)cc2)=C1N` (stereo not drawn), the cell number change was -35.3%. Also, under setting [1], the AC50 was 23.1 µM [falling, partial curve]. Also, under setting [2], the AC50 is 20.6 µM [falling, single point].
Turning to `Cc1cccc(N=Nc2c(O)[nH]c3ccc(F)cc23)c1`, the cell number change is -18.2%. The AC50 under setting [2] was 29.1 µM [falling, partial curve].
With `COc1nc(Nc2ccc(O)cc2)nc(OC(C(F)(F)F)C(F)(F)F)n1`, the cell number change was -41.7%. In addition, the AC50 under setting [1] is 29.1 µM [falling, single point].
For `Cc1cccc(C(=O)NC(CC(=O)O)c2ccc(OC3CCCC3)cc2)c1[N+](=O)[O-]` (stereo not drawn), the cell number change is -2.23%. The AC50 under setting [2] is 0.00461 µM [falling, full curve, poor fit].
`CC(=O)NCCc1nc2cc(NC(=O)c3ccccc3Cl)ccc2n1C`: the cell number change stood at 27.5%. Under setting [2], the AC50 was 25.9 µM [rising, single point].
Consider `Cc1c(NC(=O)CSc2nc3ccccc3s2)c(=O)n(-c2ccccc2)n1C`, for which the cell number change was 66%. The half-maximal activity concentration (AC50) under setting [1] was 2.91 µM [rising, full curve]. The AC50 under setting [2] was 2.91 µM [rising, full curve].
On to `O=C(/C=C/c1ccccc1)CC(O)(c1ccccc1)C(F)(F)F` (stereo not drawn), for which the cell number change was -91%. The AC50 under setting [1] is 20.6 µM [falling, single point].
On to `CC(CC(=O)Nc1ccc(S(=O)(=O)N2CCOCC2)cc1)c1ccccc1` (stereo not drawn), for which the AC50 under setting [2] is 2.59 µM [falling, partial curve].
For the molecule `O=C(C1=C[C@H](c2ccccc2)C[C@H](OCCCCO)O1)N1CCN(Cc2ccc3c(c2)OCO3)CC1`, the cell number change is -25.6%. Besides, the AC50 under setting [2] is 23.1 µM [falling, single point].
Take `Clc1ccc(CSc2nnc3ccccn23)c(Cl)c1`: the cell number change was 10.5%. The AC50 under setting [2] is 11.6 µM [rising, single point].
Regarding `COc1ccc(NC2CCCN(C(=O)c3cccs3)C2)cc1` (stereo not drawn), the cell number change is -0.708%. In addition, under setting [2], the AC50 is 1.64 µM [falling, partial curve].
For the molecule `CC(=O)Nc1ccc(NC(=O)CCCSc2nc3ccccc3s2)cc1`, the cell number change was 153%. In addition, the AC50 under setting [1] is 18.4 µM [rising, single point].
With `CCN(CC)c1ccc(/C=C2\C(=O)N(c3nnc(C)c(=O)[nH]3)N=C2C)cc1`, the cell number change was -18%.
Still for that read-out and setting: as for `O=C(COC(=O)CCc1nc2ccccc2c(=O)[nH]1)NC1CCS(=O)(=O)C1` (stereo not drawn), the figure is -24.1%.
For `Cc1cc(Cl)nc(-c2ccccc2)n1`, the cell number change is 11.6%. In addition, the AC50 under setting [2] was 32.6 µM [rising, single point].
`Cc1cc(=O)oc2cc(OC(=O)CCCCCN3C(=O)c4ccccc4C3=O)ccc12`: the cell number change was found to be 31.4%. The AC50 under setting [1] was 29.1 µM [rising, single point]. Under setting [2], the AC50 is 29.1 µM [rising, partial curve, poor fit].
For the molecule `CCC1(c2ccccc2)NC(=O)N(CC(=O)NCc2ccc(OC)cc2)C1=O` (stereo not drawn), the cell number change stood at 11.7%. The AC50 under setting [2] is 0.13 µM [rising, full curve, poor fit].
Regarding `C=C(C)CSC1=C(C#N)C(c2ccccc2Cl)CC(=O)N1` (stereo not drawn), the cell number change was found to be 41.6%. Further, the AC50 under setting [1] was 0.00517 µM [rising, full curve, poor fit].
Take `CCOc1cc(C2Nc3cccc4cccc(c34)N2)ccc1O`: the cell number change is -3.34%. The AC50 under setting [1] was 0.116 µM [falling, full curve, poor fit]. The AC50 under setting [2] is 0.231 µM [falling, full curve].
On to `CCOC(=O)c1sc(NC(=O)CSc2n[nH]c(CC)n2)nc1C`, for which the cell number change was -47.5%. Under setting [1], the AC50 is 29.1 µM [falling, single point]. For the same molecule, the AC50 under setting [2] is 3.26 µM [falling, partial curve].
Consider `CC(Oc1ccc([N+](=O)[O-])cc1Cl)C(=O)Nc1ccc(C(N)=O)cc1` (stereo not drawn), for which the cell number change is -25.2%. Under setting [1], the AC50 was 0.103 µM [falling, full curve].
For `COc1ccc(-c2csc(NC(=O)CN3C(=O)NC4(CCCC4)C3=O)n2)cc1`, the AC50 under setting [1] is 1.64 µM [rising, partial curve, poor fit].
On to `CN(C(=O)COC(=O)c1cccc(NS(=O)(=O)c2ccc(F)c(F)c2)c1)C1CCS(=O)(=O)C1` (stereo not drawn), for which the AC50 under setting [2] was 0.58 µM [rising, single point].
`COc1ccc(N=c2scc(-c3ccc(OC)cc3)n2CCO)cc1`: the cell number change was -32.1%. In addition, under setting [1], the AC50 was 16.4 µM [falling, single point]. For the same molecule, the AC50 under setting [2] is 20.6 µM [falling, single point].
On to `Cc1ccc(Nc2nc(N)nc(CN3CCc4ccccc4C3)n2)cc1`, for which the cell number change turned out to be 110%. For the same molecule, under setting [1], the AC50 is 18.4 µM [rising, single point]. Moreover, the AC50 under setting [2] is 10.3 µM [rising, partial curve].
Take `CCN1CCN(S(=O)(=O)c2ccc(Cl)c(C(=O)N(CC)CC(=O)Nc3ccc(OC)cc3)c2)CC1`: the cell number change was -9.19%. Under setting [2], the AC50 is 2.59 µM [rising, single point].
As to `COc1cc(-c2[nH]ncc2CN2CCN(c3cccc(C)n3)CC2)cc(OC)c1OC`, the cell number change is -25.2%.
On to `CCCN1Cc2cccc(C(=O)Nc3ccc(CC)cc3)c2C1=O`, for which the AC50 is, setting by setting: under setting [1], 0.82 µM [rising, full curve]; under setting [2], 0.651 µM [rising, partial curve, poor fit].
For `COc1ccc2c(c1OC)C(=O)OC2C1c2c(cc3c(c2OC)OCO3)CCN1C` (stereo not drawn), the cell number change is 21.4% and 25.7%. Besides, the AC50 under setting [2] is 16.4 µM [rising, single point] and 2.31 µM [rising, partial curve].
Turning to `CCOC(=O)c1sc2cc([N+](=O)[O-])cc(SCC(C)C)c2c1N`, the cell number change is -18.5%. Further, the half-maximal activity concentration (AC50) under setting [1] was 1.64 µM [falling, single point]. For the same molecule, under setting [2], the AC50 was 2.31 µM [falling, full curve, poor fit].
With `Cc1ccc(S(=O)(=O)NC(=O)COc2cc(C)ccc2C(C)C)cc1`, under setting [2], the AC50 was 29.1 µM [falling, single point].
As for `COc1cccc(/C=C/C(=O)OCC(=O)NCC2CCCCC2)c1OC`, the cell number change is -32.8%. For the same molecule, under setting [1], the AC50 was 20.6 µM [falling, single point].
As for `COc1ccc(C(=O)Nc2ccccc2C(=O)N2CCCCCC2)cc1`, the cell number change was 22.4%. For the same molecule, under setting [2], the concentration at half-maximal activity (AC50) is 3.98 µM [falling, full curve].
For `Cc1nn(C)c(C(=O)NNC(=O)NC2CCCCC2)c1Cl`, the cell number change is -18.2%.
With `CC(CCN1C(Nc2ccccc2)=NC[C@@H]1Cc1ccccc1)c1ccccc1` (stereo partly drawn), the cell number change is 5.99%. The AC50 under setting [2] was 0.231 µM [falling, partial curve].
Take `O=C1CCc2cc(S(=O)(=O)Nc3ccc(F)cc3)cc3c2N1CC3`: the cell number change was 12.1%.
For `CC(=O)Nc1cccc(Oc2cc(C#N)c(C#N)cc2N2CCOCC2)c1`, the cell number change was -16.5%. Under setting [2], the AC50 is 20.6 µM [falling, partial curve, poor fit].
Consider `COC(=O)[C@H]1[C@H]2C[C@H]3c4[nH]c5ccccc5c4CCN3C[C@@H]2CC[C@@H]1O`, for which the cell number change stood at 4.92%. For the same molecule, the AC50 under setting [2] is 6.51 µM [rising, single point].
As for `CC(=O)O[C@H]1CC[C@@]2(C)C(=CC[C@H]3[C@@H]4CC[C@H](C5(C)OCCO5)[C@@]4(C)CC[C@@H]32)C1`, the cell number change was -12.7%. Further, under setting [2], the concentration at half-maximal activity (AC50) is 29.1 µM [rising, single point].
As to `Cc1ccc(C)c(N(CC(N)=O)S(C)(=O)=O)c1`, the cell number change was -3.17%. Moreover, the AC50 under setting [2] was 0.0411 µM [falling, full curve].
For `Cc1ccc(CNc2cc(C(=O)O)ccc2Cl)s1`, the cell number change came out at 10.6%. The AC50 under setting [2] is 23.1 µM [rising, single point].
As for `COC(=O)c1ccc(C(=O)OC)c(NC(=O)COC(=O)C2CCC(C(C)(C)C)CC2)c1` (stereo not drawn), the AC50 runs as follows: under setting [1], 2.06 µM [rising, partial curve]; under setting [2], 2.06 µM [rising, partial curve].
In the case of `O=C1c2ccccc2C(=O)N1CCCCN(C(=O)c1ccc(Cl)s1)c1ccc(Cl)cc1`, the cell number change is -29.4%. Moreover, the AC50 under setting [1] is 3.66 µM [falling, single point]. In addition, the AC50 under setting [2] is 29.1 µM [falling, single point].
